Measurements reported in the supplement of paper PMC12889115.
The list shows a part of the results. Values are raw readings; no control value is given beside them.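 Primary screen: polymyxin B was added at a level permeabilizing Salmonella outer membranes while sparing inner membranes. DMSO wells, both with and without polymyxin B, established maximum growth. Plate-to-plate variation meant each plate was ranked on its own, and the lowest-OD600 compounds were selected as hits.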

Tested on: Salmonella enterica serovar Typhimurium SL1344
Experiment: bacterial growth OD600 after 18 h with compound and polymyxin B; higher = more bacterial growth (less inhibition)
Conditions: 50 µM, Mueller-Hinton broth

Row | SMILES | bacterial growth OD600 (polymyxin B 1 µg/mL) | bacterial growth OD600 (polymyxin B 0.75 µg/mL)
1 | CC(=O)N1CCC(NC2CCCc3c2cnn3-c2ccc(C)c(C)c2)CC1 (stereo not given) | 1.01 | –
2 | O=C(CCC1(Cc2ccc3ccccc3c2)CCC(=O)N1)NC1CCCc2ccccc21 (stereo not given) | – | 0.016
3 | COc1ccc(C(=O)CCC(=O)N2CCCC(c3nc(C)ncc3-c3cccc(C)c3)C2)cc1 (stereo not given) | – | 0.914
4 | COc1cc(CN2CCOC(Cc3ccccc3)C2)cc(OC)c1OC (stereo not given) | – | 0.839
5 | COc1ccc(NC(=O)N2CCCC(CNS(=O)(=O)c3cccs3)C2)c(C)c1 (stereo not given) | 0.862 | –
6 | CN1CCC(N2CCCC(CNC(=O)c3cccc4ccccc34)C2)CC1 (stereo not given) | – | 1
7 | CCN1CCN(C2(C(=O)NCCCSC)Cc3ccccc3C2)CC1 | – | 0.771
8 | O=C(NCCCc1ccccn1)c1ccc(N2CCC(N3CCCC3)CC2)nc1 | – | 0.798
9 | Cc1nc(N2CCCCCCC2)ncc1C(C)NC(C)C (stereo not given) | 0.661 | –
10 | COc1cc(CN2CCN(C3CCCCC3)CC2CCO)cc(OC)c1 (stereo not given) | 0.814 | –
11 | O=C(c1cccnc1)N1CCC2(CCCN(Cc3cccc(F)c3F)C2)C1 (stereo not given) | 1.11 | –
12 | COCC(=O)Nc1cc(C(=O)NC(C)Cc2ccccn2)cc2ncn(CCc3ccccc3)c12 (stereo not given) | – | 0.794
13 | Cc1ccccc1CCN1CCCC(CN(C)C(=O)C2(C)CCCCC2)C1 (stereo not given) | 0.723 | –
14 | CC1CN(Cc2nc3ccccc3n2C)Cc2cc(Cl)ccc2O1 (stereo not given) | – | 0
15 | O=C(c1ccc(OC2CCN(C(=O)C3CC3)CC2)cc1)N1CCCCCC1 | 0.886 | –
16 | CN1CCN(c2ccc(C(=O)NCCC3COc4ccccc4O3)cn2)CC1 (stereo not given) | 0.846 | –
17 | CN(C(=O)c1cccc(-n2cccn2)c1)C1CCCN(CCc2ccccc2)C1 (stereo not given) | 1.22 | –
18 | COc1cccc(NC(=O)CCC2CCN(C(=O)c3cccnc3SC)CC2)c1 | 1.02 | –
19 | Cc1cc(C)n(-c2ccc(F)cc2CNCc2cccnc2N(C)C)n1 | – | 0.812
20 | Cc1nc2cc(OCc3cc(C(=O)N(CCO)Cc4ccccc4)no3)ccc2s1 | 0.769 | –
21 | O=C(c1nc2sccn2c1CNCCCOc1cccnc1)N1CCCCCCC1 | 0.916 | –
22 | O=C(Cc1c[nH]c2ccccc12)NCCN1Cc2ccccc2OC(c2ccccc2)C1 (stereo not given) | – | 0.61
23 | OCC1(Cc2ccccc2F)CCCN(C2CCN(Cc3ccccc3)CC2)C1 (stereo not given) | – | 0.859
24 | COc1cc2nc(N(C)C)c(CNCCc3cccc(Cl)c3)cc2c(OC)c1OC | – | 0.775
25 | O=C(C1CCCN(Cc2nc(C(c3ccccc3)c3ccccc3)no2)C1)N1CCOCC1 (stereo not given) | 0.988 | –
26 | CCOC(=O)CC1(NC(=O)C2CCC(=O)N(CCN3CCOCC3)C2)CCCCC1 (stereo not given) | 1.23 | –
27 | COc1cccc(CCC2CCCN(C(=O)CN3CCOC3=O)C2)c1 (stereo not given) | – | 0.809
28 | Cc1cc(C)c(C(=O)N2CCC(C3CCN(Cc4cccnc4)CC3)C2)o1 (stereo not given) | – | 0.841
29 | Cc1cc(C)n(-c2cccc(C(=O)NCC3Cc4cccc(-c5ncccn5)c4O3)c2)n1 (stereo not given) | – | 0.859
30 | COC(=O)C(CCSC)NC(=O)c1cc(Cl)ccc1OC1CCN(C(C)=O)CC1 (stereo not given) | 0.97 | –

One compound at a time (already shown).
COc1ccc(NC(=O)N2CCCC(CNS(=O)(=O)c3cccs3)C2)c(C)c1 (stereo not given) as listed: bacterial growth OD600 (polymyxin B 1 µg/mL): 0.862
CCOC(=O)CC1(NC(=O)C2CCC(=O)N(CCN3CCOCC3)C2)CCCCC1 (stereo not given) as listed: bacterial growth OD600 (polymyxin B 1 µg/mL): 1.23
